Consider 36 targets from the supplement of paper PMC10849652.

Chains of the proteins cited; added tags and fusions are not shown. Lines headed by an entry give the natural chain unless they say otherwise; changes in a name come on top.
UniProt Q86YS7: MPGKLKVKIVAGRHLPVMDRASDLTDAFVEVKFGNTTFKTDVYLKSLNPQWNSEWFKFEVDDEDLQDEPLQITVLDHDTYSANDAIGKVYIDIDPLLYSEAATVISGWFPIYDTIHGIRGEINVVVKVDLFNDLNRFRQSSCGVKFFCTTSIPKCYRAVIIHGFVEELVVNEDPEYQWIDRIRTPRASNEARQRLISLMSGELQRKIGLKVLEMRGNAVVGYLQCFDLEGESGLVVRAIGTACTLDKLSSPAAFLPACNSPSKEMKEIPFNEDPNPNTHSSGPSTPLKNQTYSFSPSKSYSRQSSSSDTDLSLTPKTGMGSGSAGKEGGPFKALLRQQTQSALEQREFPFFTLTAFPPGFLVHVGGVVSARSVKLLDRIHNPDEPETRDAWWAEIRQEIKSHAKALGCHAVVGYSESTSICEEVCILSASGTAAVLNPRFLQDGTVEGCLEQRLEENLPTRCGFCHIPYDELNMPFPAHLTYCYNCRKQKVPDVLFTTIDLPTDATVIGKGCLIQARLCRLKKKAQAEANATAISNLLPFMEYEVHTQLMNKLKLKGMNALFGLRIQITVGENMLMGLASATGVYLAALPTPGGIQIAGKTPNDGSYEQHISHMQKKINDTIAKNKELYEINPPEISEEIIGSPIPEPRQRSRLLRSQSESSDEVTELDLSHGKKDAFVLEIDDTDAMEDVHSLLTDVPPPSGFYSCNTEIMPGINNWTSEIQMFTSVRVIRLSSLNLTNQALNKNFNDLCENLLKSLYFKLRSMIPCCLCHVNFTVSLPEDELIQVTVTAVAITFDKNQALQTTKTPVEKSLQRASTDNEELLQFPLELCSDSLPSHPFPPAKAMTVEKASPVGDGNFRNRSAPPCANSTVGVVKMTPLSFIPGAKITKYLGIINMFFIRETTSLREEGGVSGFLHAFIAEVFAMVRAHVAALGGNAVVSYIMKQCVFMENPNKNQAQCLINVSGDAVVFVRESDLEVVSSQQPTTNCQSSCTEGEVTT
UniProt P41223: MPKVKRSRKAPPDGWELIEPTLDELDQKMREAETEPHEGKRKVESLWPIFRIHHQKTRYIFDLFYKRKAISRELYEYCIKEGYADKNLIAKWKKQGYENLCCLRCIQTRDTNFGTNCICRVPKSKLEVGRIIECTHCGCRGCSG
UniProt P17655: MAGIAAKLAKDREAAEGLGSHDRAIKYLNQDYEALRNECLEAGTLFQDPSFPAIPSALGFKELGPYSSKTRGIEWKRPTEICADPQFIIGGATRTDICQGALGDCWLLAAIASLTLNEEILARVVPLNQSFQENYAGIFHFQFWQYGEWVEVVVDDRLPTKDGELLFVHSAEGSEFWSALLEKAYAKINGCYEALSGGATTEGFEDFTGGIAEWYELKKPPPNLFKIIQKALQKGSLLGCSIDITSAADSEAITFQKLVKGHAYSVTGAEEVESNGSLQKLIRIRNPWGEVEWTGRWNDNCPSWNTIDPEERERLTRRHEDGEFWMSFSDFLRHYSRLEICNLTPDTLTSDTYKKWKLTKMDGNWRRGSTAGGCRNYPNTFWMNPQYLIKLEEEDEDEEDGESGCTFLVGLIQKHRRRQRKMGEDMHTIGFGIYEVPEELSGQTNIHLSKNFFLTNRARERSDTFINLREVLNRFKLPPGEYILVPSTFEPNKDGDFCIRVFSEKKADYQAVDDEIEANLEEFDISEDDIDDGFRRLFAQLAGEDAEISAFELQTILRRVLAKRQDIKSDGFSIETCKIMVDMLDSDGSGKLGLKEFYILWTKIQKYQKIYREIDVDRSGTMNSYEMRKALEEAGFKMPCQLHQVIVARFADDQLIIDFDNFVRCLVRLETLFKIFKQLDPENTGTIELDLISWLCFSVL
UniProt O43684, whole entry, looked up: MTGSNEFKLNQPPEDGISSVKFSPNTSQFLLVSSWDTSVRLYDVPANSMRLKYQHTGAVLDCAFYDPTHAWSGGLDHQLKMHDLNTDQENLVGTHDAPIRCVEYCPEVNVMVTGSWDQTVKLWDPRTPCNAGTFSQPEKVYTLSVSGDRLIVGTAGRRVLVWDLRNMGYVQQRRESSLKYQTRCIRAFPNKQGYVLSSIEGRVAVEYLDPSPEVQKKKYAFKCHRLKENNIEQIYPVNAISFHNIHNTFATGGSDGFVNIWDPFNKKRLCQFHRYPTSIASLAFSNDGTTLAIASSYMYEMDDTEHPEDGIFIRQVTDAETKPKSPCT
UniProt Q8TCD1: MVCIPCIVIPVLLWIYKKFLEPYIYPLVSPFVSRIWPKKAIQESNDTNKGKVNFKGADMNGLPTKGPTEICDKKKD
UniProt P35219: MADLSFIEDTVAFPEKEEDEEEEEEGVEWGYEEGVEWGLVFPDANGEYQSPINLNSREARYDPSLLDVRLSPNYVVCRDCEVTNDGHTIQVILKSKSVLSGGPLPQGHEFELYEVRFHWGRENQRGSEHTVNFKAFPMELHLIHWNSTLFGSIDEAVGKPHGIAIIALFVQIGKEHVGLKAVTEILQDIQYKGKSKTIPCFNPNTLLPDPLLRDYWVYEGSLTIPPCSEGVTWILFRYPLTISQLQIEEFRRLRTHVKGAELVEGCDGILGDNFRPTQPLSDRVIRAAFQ
UniProt Q9NS00: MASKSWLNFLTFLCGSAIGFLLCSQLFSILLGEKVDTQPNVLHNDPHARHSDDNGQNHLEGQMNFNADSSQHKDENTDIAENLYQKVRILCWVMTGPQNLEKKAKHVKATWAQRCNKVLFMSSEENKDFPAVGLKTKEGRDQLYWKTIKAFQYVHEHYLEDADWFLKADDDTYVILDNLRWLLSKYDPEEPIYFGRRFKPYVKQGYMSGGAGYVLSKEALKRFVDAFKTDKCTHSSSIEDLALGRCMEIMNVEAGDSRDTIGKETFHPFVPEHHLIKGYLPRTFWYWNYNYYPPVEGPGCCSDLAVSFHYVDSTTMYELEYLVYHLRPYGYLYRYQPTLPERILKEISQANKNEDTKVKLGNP
UniProt Q5SNV9: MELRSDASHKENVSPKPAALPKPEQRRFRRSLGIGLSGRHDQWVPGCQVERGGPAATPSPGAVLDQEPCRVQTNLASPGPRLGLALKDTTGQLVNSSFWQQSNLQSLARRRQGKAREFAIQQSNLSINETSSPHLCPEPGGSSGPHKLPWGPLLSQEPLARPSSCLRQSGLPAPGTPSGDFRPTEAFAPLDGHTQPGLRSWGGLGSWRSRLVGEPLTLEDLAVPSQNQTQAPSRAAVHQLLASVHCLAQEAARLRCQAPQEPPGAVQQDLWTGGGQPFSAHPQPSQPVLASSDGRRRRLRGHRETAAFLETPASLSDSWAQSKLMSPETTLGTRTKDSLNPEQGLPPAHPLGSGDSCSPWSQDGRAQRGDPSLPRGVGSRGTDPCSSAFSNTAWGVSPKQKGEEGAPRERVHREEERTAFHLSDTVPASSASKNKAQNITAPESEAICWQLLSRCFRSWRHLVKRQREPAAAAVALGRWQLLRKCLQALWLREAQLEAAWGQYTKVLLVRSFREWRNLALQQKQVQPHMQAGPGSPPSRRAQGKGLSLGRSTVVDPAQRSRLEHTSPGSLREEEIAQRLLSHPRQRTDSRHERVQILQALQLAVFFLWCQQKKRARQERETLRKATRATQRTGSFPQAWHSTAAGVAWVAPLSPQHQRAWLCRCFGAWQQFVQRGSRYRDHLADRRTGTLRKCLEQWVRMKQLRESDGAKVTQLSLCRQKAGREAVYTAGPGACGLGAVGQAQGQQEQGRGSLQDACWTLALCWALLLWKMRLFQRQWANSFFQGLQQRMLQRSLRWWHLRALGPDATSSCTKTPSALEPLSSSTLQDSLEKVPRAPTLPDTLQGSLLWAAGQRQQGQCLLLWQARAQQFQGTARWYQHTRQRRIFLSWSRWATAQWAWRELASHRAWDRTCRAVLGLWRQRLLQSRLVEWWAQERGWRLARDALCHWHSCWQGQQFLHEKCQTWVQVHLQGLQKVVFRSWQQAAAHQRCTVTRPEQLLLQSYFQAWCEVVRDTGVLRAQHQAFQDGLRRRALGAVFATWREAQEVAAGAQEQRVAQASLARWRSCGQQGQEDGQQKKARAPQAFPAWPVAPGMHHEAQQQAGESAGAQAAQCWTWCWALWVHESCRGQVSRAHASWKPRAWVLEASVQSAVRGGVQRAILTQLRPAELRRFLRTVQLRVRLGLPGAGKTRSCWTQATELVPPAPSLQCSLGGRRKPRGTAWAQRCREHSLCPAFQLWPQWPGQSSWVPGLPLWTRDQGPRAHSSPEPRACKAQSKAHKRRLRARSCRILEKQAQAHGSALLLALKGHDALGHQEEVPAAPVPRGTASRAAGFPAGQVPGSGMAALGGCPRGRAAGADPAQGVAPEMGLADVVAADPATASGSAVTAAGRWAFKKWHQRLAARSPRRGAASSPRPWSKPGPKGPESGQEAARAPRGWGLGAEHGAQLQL
UniProt Q9H425: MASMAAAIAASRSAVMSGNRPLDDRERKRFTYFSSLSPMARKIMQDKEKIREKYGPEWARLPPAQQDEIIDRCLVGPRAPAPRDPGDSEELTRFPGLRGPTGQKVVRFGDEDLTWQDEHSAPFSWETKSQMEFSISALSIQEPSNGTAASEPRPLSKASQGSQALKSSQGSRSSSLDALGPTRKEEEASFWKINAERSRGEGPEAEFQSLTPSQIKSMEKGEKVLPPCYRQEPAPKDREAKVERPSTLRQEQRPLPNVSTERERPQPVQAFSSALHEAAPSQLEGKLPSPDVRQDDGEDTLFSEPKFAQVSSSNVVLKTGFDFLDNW
UniProt Q10589, whole entry, looked up: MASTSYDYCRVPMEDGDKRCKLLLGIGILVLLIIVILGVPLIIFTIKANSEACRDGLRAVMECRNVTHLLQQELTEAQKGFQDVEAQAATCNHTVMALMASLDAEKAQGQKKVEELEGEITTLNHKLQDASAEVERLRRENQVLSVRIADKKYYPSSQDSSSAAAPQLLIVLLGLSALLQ
UniProt Q86VP6: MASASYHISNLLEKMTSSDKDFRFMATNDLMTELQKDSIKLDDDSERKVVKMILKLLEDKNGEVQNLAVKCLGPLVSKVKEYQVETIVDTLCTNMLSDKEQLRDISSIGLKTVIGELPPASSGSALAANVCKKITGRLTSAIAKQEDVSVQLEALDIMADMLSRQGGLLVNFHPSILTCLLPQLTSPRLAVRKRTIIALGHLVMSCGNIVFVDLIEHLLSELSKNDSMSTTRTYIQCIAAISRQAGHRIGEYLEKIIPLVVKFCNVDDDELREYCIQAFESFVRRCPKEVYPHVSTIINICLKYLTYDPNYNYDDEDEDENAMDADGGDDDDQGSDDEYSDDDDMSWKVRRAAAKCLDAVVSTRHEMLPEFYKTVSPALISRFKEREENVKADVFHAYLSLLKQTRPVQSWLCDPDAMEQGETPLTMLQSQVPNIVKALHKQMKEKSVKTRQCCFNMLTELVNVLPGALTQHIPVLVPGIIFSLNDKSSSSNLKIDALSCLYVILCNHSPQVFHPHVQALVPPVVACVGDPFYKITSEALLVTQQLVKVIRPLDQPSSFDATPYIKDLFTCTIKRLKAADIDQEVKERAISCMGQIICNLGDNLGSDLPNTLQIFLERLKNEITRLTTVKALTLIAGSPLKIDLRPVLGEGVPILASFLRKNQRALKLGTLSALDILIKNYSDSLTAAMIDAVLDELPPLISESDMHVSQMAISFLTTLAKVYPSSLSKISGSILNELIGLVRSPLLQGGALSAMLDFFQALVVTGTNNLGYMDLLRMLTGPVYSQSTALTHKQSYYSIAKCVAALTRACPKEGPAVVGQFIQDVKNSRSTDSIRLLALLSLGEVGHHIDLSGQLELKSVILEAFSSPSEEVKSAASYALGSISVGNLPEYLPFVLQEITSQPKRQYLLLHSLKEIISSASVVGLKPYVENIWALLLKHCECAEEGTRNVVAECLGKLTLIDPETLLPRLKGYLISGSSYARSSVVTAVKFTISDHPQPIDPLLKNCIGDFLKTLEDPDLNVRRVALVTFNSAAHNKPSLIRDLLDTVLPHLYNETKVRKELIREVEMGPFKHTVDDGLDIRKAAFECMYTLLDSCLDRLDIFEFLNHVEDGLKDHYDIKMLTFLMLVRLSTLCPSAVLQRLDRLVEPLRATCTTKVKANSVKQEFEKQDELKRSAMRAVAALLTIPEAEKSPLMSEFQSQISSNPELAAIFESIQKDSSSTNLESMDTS
UniProt Q8IXQ3: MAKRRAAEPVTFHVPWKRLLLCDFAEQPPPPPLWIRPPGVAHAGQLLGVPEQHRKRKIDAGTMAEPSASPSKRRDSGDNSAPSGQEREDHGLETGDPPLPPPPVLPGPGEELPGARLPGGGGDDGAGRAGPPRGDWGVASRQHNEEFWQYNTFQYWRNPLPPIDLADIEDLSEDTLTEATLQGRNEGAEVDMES
UniProt Q8N6N3: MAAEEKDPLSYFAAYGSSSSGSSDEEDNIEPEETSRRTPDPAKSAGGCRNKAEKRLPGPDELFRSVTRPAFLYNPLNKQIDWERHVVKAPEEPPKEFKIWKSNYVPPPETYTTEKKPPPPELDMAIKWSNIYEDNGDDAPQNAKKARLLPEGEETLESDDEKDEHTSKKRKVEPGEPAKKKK

The list shows a part of the results.

Compound in the first assay: C1=CC=C(C=C1)[C@H](COC2=CC3=C(C=C2)NC(=O)N3)NC(=O)C4=CC=CN(C4=O)CC5=CC(=C(C=C5)F)F
Description: log2 fold change, soluble protein after heating vs DMSO (PISA); higher = thermal stabilisation; K562 cells, 10 uM, 30 min; active = over 0.2 and 3.5 SD of the protein, either way, in both replicates (recomputed). A digest of the protocol: (§1)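 K562 cells at 2×10^6 cells/mL were treated for 30 min with 10 μM compound, and aliquots were heated for 3 min over 48°C-58°C before pooling. Extraction used PBS with 0.5% NP-40 at 4°C, and soluble protein was the supernatant after 21,000xg for 90 min, measured by TMTpro 16plex LC-MS/MS with channel sums equalised. Thermal stability values, relative to control samples and from duplicates, are log2 fold changes.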
Regarding C2orf69 (UniProt Q8N8R5), the log2 fold change was inactive: -0.041.
Still for that read-out and setting: to CACYBP (UniProt Q9HB71) belongs inactive: -0.02; to BTD isoform 3 (UniProt P43251), inactive: -0.013.
On to C1orf174 (UniProt Q8IYL3), for which the log2 fold change was inactive: 0.051.
Consider C17orf75 (UniProt Q9HAS0), for which the log2 fold change was inactive: -0.045.
Consider C19orf57 (UniProt Q0VDD7), for which the log2 fold change is inactive: 0.051.
Still for that read-out and setting: to CALB1 (UniProt P05937) belongs inactive: 0.001; to C2CD5 isoform 4 (UniProt Q86YS7), inactive: 0.004.
With BUD31 (UniProt P41223), the log2 fold change was inactive: -0.002.
On to BTF3L4 (UniProt Q96K17), for which the log2 fold change was inactive: 0.004.
As to CALU isoform 3 (UniProt O43852), the log2 fold change is inactive: 0.
Still for that read-out and setting: to C5orf22 (UniProt Q49AR2) belongs inactive: -0.055.
Take CAPN2 (UniProt P17655): the log2 fold change is inactive: -0.013.
As to BUB3 (UniProt O43684), the log2 fold change is inactive: 0.007.
CAPG (UniProt P40121): the log2 fold change is inactive: -0.014.
For C1orf109 (UniProt Q9NX04), the log2 fold change is inactive: 0.05.
Consider C18orf32 (UniProt Q8TCD1), for which the log2 fold change was inactive: 0.053.
With C17orf80 (UniProt Q9BSJ5), the log2 fold change is inactive: 0.139.
As to BZW2 (UniProt Q9Y6E2), the log2 fold change is inactive: -0.069.
Consider CAMK2G isoform 6 (UniProt Q13555), for which the log2 fold change is inactive: -0.017.
Take CA8 (UniProt P35219): the log2 fold change was inactive: 0.006.
Take C1GALT1 (UniProt Q9NS00): the log2 fold change is inactive: -0.005.
On to C1orf167 isoform 2 (UniProt Q5SNV9), for which the log2 fold change was inactive: -0.073.
With CA1 (UniProt P00915), the log2 fold change is inactive: -0.007.
Turning to C1orf198 (UniProt Q9H425), the log2 fold change is inactive: 0.022.
The same measure, in the same setting: to C16orf58 (UniProt Q96GQ5) belongs inactive: 0.023.
C5orf51 (UniProt A6NDU8): the log2 fold change was inactive: -0.017.
Turning to CAMSAP1 isoform 3 (UniProt Q5T5Y3), the log2 fold change is inactive: -0.06.
For BST2 (UniProt Q10589), the log2 fold change was inactive: 0.056.
Consider CAND1 (UniProt Q86VP6), for which the log2 fold change was inactive: 0.021.
Turning to BUB1 (UniProt O43683), the log2 fold change is inactive: -0.015.
BZW1 isoform 3 (UniProt Q7L1Q6): the log2 fold change was inactive: -0.227.
Turning to C9orf40 (UniProt Q8IXQ3), the log2 fold change was inactive: 0.041.
Turning to C11orf54 (UniProt Q9H0W9), the log2 fold change was inactive: 0.014.
As for BUD23 isoform 3 (UniProt O43709), the log2 fold change was inactive: 0.02.
The same measure, in the same setting: to C1orf52 (UniProt Q8N6N3) belongs inactive: 0.02.

Compound in a further assay: CC1=C(SC2=C1C(=N[C@H](C3=NN=C(N32)C)CC(=O)N)C4=CC=C(C=C4)Cl)C
The description is as above. An outline of the steps:
as §1
C2orf69 (UniProt Q8N8R5): the log2 fold change is inactive: 0.
On the same count and under the same terms, to CACYBP (UniProt Q9HB71) belongs inactive: 0.048; to BTD isoform 3 (UniProt P43251), inactive: -0.005.
Take C1orf174 (UniProt Q8IYL3): the log2 fold change is inactive: 0.114.
C17orf75 (UniProt Q9HAS0): the log2 fold change was inactive: 0.015.
Consider C19orf57 (UniProt Q0VDD7), for which the log2 fold change was inactive: -0.039.
As for CALB1 (UniProt P05937), the log2 fold change was inactive: 0.009.
Same read-out and setting: to C2CD5 isoform 4 (UniProt Q86YS7) belongs inactive: 0.052.
For the target BUD31 (UniProt P41223), the log2 fold change is inactive: 0.06.
On to BTF3L4 (UniProt Q96K17), for which the log2 fold change was inactive: 0.008.
CALU isoform 3 (UniProt O43852): the log2 fold change was inactive: -0.003.
C5orf22 (UniProt Q49AR2): the log2 fold change was inactive: 0.071.
Regarding CAPN2 (UniProt P17655), the log2 fold change is inactive: 0.065.
For the target BUB3 (UniProt O43684), the log2 fold change is inactive: 0.03.
Take CAPG (UniProt P40121): the log2 fold change was inactive: 0.05.
On to C1orf109 (UniProt Q9NX04), for which the log2 fold change was inactive: 0.003.
With C18orf32 (UniProt Q8TCD1), the log2 fold change is inactive: 0.112.
As to C17orf80 (UniProt Q9BSJ5), the log2 fold change is inactive: -0.014.
Take BZW2 (UniProt Q9Y6E2): the log2 fold change was inactive: 0.042.
As to CAMK2G isoform 6 (UniProt Q13555), the log2 fold change was inactive: 0.054.
In the case of CA8 (UniProt P35219), the log2 fold change is inactive: 0.059.
C1GALT1 (UniProt Q9NS00): the log2 fold change was inactive: 0.02.
As to C1orf167 isoform 2 (UniProt Q5SNV9), the log2 fold change was inactive: -0.021.
Consider CA1 (UniProt P00915), for which the log2 fold change was inactive: 0.039.
With C1orf198 (UniProt Q9H425), the log2 fold change is inactive: 0.017.
Same read-out and setting: to C16orf58 (UniProt Q96GQ5) belongs inactive: 0.025; to C5orf51 (UniProt A6NDU8), inactive: 0.036; to CAMSAP1 isoform 3 (UniProt Q5T5Y3), inactive: 0.083.
The same measure, in the same setting: to BST2 (UniProt Q10589) belongs inactive: 0.019; to CAND1 (UniProt Q86VP6), inactive: 0.001; to BUB1 (UniProt O43683), inactive: 0.084.
Take BZW1 isoform 3 (UniProt Q7L1Q6): the log2 fold change is inactive: 0.002.
For the target C9orf40 (UniProt Q8IXQ3), the log2 fold change is inactive: -0.058.
On to C11orf54 (UniProt Q9H0W9), for which the log2 fold change is inactive: 0.049.
BUD23 isoform 3 (UniProt O43709): the log2 fold change was inactive: -0.071.
For C1orf52 (UniProt Q8N6N3), the log2 fold change is inactive: 0.042.
